# Test results: PubChem BioAssay AID540276 (National Center for Advancing Translational Sciences (NCATS), 2011)
# Where “and” joins values, the source holds several entries; their conditions need not be identical. Identical values can stand only once. The campaign covered roughly 300,000 compounds. About 5,400 (1.8%) were called active. Inconclusive results, whose numbers are uncertain, are shown with a selection of clear calls. The call rests on the fitted dose curve; tested in HEK293 cells. Where the call is inconclusive, the potency comes from a doubtful curve fit.
# Test: qHTS for inhibitors of binding or entry into cells for Marburg Virus
# Settings: Marburg virus pseudotyped entry inhibition, cell reporter; activity change, negative = inhibition: at 37.8 µM (top of the series) unless noted
# On the % scale 0 is the no-effect control and ±100 the full control effect; potency means the concentration at half of the fitted maximal effect.
SMILES,Potency,"activity change, negative = inhibition"
COC(=O)c1sc(-c2ccc(Cl)cc2)cc1NC(=O)/C=C/C(=O)O,"inconclusive: 11.2 µM [inhibitor, partial curve]",–
CCCS(=O)(=O)c1nc(S(=O)(=O)c2ccc(C)cc2)c(N2CCc3ccccc3C2)s1,–,inactive: 4.83%
Cc1ccc(C)c(N2CCN(C(=O)CCS(=O)(=O)c3cccc4nonc34)CC2)c1,inactive,–
COc1ccc(C2Nc3ccccc3C(=O)N2NS(=O)(=O)c2ccc(C)cc2)cc1 (stereo unspecified),"inconclusive: 7.94 µM [inhibitor, partial curve, poor fit]",–
COc1ccc(OC)c(NC(=O)CN2C(=O)CC(c3ccco3)Sc3ccccc32)c1 (stereo unspecified),"inconclusive: 35.5 µM [inhibitor, single point]",–
Cc1ccc(NC(=O)CCC(=O)N/N=C/c2ccc(O)cc2O)cc1,"inconclusive: 7.94 µM [inhibitor, partial curve, poor fit]",–
O=C(COc1ccc(Cl)cc1)Nc1cc(-c2ccccc2)no1,–,inactive: -3.07% [at 46.1 µM]
C[C@@H](N)Cc1cnc[nH]1,"inconclusive: 0.158 µM [inhibitor, full curve, poor fit]",–
CCOCCCNC(=O)c1c[nH]c2cc(C)ccc2c1=O,"inconclusive: 35.5 µM [activator, single point]",–
COc1ccc(CSc2nncn2N)cc1[N+](=O)[O-],–,inactive: 1.48%
CCn1c(CN2CCN(c3cccc(Cl)c3)CC2)nc2c1c(=O)[nH]c(=O)n2C,–,inactive: -10.2% [at 46.1 µM]
COc1ccc(NP(=O)(Nc2ccc(OC)cc2)Oc2ccccc2)cc1,"inconclusive: 0.199 µM [inhibitor, full curve, poor fit]",–
CC(=O)C1=C(C)N(Cc2ccco2)C(=O)C1(NC(=O)C1CCCCC1)C(F)(F)F (stereo unspecified),"inconclusive: 0.206 µM [inhibitor, single point]",–
Cc1ccc(Cn2c(N)nc3ccccc32)cc1,"inconclusive: 14.1 µM [inhibitor, single point]",–
C=CCNC(=O)/C(C#N)=C/c1ccc2c(c1)OCCO2,–,inactive: 2.4% [at 46.1 µM]
COc1ccc(-n2c(C)cc(/C=C/c3nc(O)c([N+](=O)[O-])c(=O)[nH]3)c2C)cc1,–,inactive: 6.98% [at 46.1 µM]
COc1cc(NC(=O)COc2ccc(-n3ccnc3)cc2)cc(OC)c1,–,inactive: -10.4% [at 46.1 µM]
C/C(=N/NC(=O)Nc1ccccc1)c1ccc(C)cc1,"inconclusive: 3.55 µM [activator, single point]",–
O=C(Nc1ccc(C(=O)N2CCOCC2)cc1)c1cc(-c2cccnc2)nc2ccc(Cl)cc12,–,inactive: -4.51% [at 46.1 µM]
C=CCNC(=S)N1CCC(Cc2ccccc2)CC1,–,inactive: -23.6% [at 46.1 µM]
CCOc1ccc(NC(=O)Nc2ccc3c(c2)CCC3)cc1,"inconclusive: 11.2 µM [activator, single point]",–
Cc1nn2c(C(F)(F)F)cc(-c3ccc(Cl)cc3)nc2c1C(=O)N1CCOCC1,"inconclusive: 1 µM [activator, partial curve, poor fit]",–
COC(=O)c1ccc(NC(=O)C(=O)NCC2CCCO2)cc1 (stereo unspecified),–,inactive: 3.79%
Cc1ccc(S(=O)(=O)Nc2cccc(CP(=O)(c3ccccc3)c3ccccc3)c2)cc1,"inconclusive: 10 µM [inhibitor, partial curve, poor fit]",–

SMILES,Potency,"activity change, negative = inhibition"
Cc1nn(-c2ccccc2)c(OC(=O)c2ccc(Br)cc2)c1S(=O)(=O)c1ccccc1,–,inactive: 4.77% [at 46.1 µM]
NC(=O)C1(N2CCCCC2)CCN(C(=O)c2ccc(C#CC3(O)CCCCC3)cc2)CC1,"inconclusive: 7.08 µM [activator, full curve, poor fit]",–
Cc1ccc(CC(=O)N(Cc2nc(-c3ccc(C)cc3)no2)C(C)C)cc1,–,inactive: -13% [at 46.1 µM]
O=C(Nc1nc2ccsc2c(=O)s1)c1ccco1,"inconclusive: 35.5 µM [activator, single point]",–
CN(C)c1ccc(C=c2c3cc(O)ccc3n3c2cc(-c2ccccc2)[n+]3C)cc1,"inconclusive: 22.4 µM [inhibitor, single point]",–
COc1ccc(C2C3=C(CCCC3=O)Nc3ccc4ncccc4c32)cc1OC (stereo unspecified),"inconclusive: 0.126 µM [inhibitor, full curve, poor fit]",–
O=C(CN1C(=O)c2ccccc2S1(=O)=O)c1ccc(OC(F)F)cc1,active: 1.26 µM,–
CCOc1ccc(NC(=O)Cn2c(=O)n(CCc3ccccc3)c(=O)c3c4c(sc32)CN(C(C)=O)CC4)cc1,–,inactive: -25.2% [at 46.1 µM]
CCOc1cc(/C=N/NC(=S)Nc2ccccc2C(F)(F)F)ccc1OCC(=O)N1CCOCC1,"inconclusive: 35.5 µM [inhibitor, single point]",–
Cc1c(C(=O)Nc2ccc(S(=O)(=O)NCC3CCCO3)cc2)cccc1[N+](=O)[O-] (stereo unspecified),"inconclusive: 1.78 µM [inhibitor, partial curve, poor fit]",–
COc1ccc(C(=O)Nc2ccc(OCC(=O)N3CCOCC3)cc2)c(OC)c1OC,–,inactive: -3.3%
COc1ccccc1N1CCN(/N=C/c2cc(OC)c(OC)c(OC)c2)CC1,–,inactive: -1.38%
Cc1cc(C)c2[nH]c(=O)c(CN(Cc3cccs3)C(=S)NCc3ccco3)cc2c1,"inconclusive: 25.9 µM [inhibitor, single point]",–
COc1ccc(N2CCN(CC(O)COc3ccccc3C(C)(C)C)CC2)cc1 (stereo unspecified),"inconclusive: 35.5 µM [inhibitor, single point]",–
CCCCCC(=O)NN=C1CCN(Cc2ccccc2)CC1,"inconclusive: 1.78 µM [inhibitor, partial curve, poor fit]",–
CCc1ccc(OCC(=O)N2CCN(CCc3ccncc3)CC2)cc1,"inconclusive: 2.82 µM [activator, single point]",–
COc1ccc(N2CCN(CCNS(=O)(=O)c3ccc(C)cc3)CC2)cc1,"inconclusive: 2.82 µM [activator, single point]",–
C[C@]12c3[nH]c4ccc(Cl)cc4c3CCN1C(=O)[C@@H](CC(=O)NCc1ccco1)C[C@@H]2C(=O)N1CCCCC1,–,inactive: -1.47%
O=C(NC(=S)N1CCCc2ccccc21)c1ccc(Cl)cc1,–,inactive: -0.45%
N#C/C(=C/c1ccccc1)C(=O)NCc1ccccc1,–,inactive: -18.4% [at 46.1 µM]
CC(C)CCC(CCN1CCCC1)c1ccc2c(c1)OCO2 (stereo unspecified),"inconclusive: 5.01 µM [inhibitor, full curve, poor fit]",–
CCCCCn1c(SCCC(C)C)nc2c1c(=O)[nH]c(=O)n2C,"inconclusive: 12.6 µM [inhibitor, single point]",–
Cc1ncsc1C(=O)N1CCCC(C(=O)c2ccc3ccccc3c2)C1 (stereo unspecified),"inconclusive: 7.94 µM [inhibitor, full curve, poor fit]",–
O=c1[nH]c2ccc(N=Cc3c(O)ccc4cc(Br)ccc34)cc2[nH]1,"inconclusive: 6.31 µM [inhibitor, single point]",–

SMILES,Potency,"activity change, negative = inhibition"
O=C(NC1CCSc2ccccc21)c1ccc([N+](=O)[O-])cc1 (stereo unspecified),"inconclusive: 10 µM [inhibitor, partial curve]",–
Cc1ccc2nc(SCC(=O)N3CCCCCC3)nc(=O)n2c1,–,inactive: 6.34% [at 46.1 µM]
CCn1c(-c2cc(-c3ccc(OC(C)C)cc3)nc3ccccc23)n[nH]c1=S,"inconclusive: 9.2 µM [inhibitor, single point]",–
CCc1ccccc1NC(=O)CSc1nnc(-c2cc(OC)c(OC)c(OC)c2)o1,–,inactive: 9.3% [at 46.1 µM]
COc1cc(OC)c2c(c1)C(=O)OC2,"inconclusive: 35.5 µM [activator, single point]",–
Cc1ccc(N2CC(c3nnc(Cc4ccc(Cl)cc4)o3)CC2=O)cc1 (stereo unspecified),–,inactive: -23.8% [at 46.1 µM]
CC(=O)OCC1OC(n2ncc(=O)n(Cc3ccccc3)c2=O)C(OC(C)=O)C1OC(C)=O (stereo unspecified),"inconclusive: 6.31 µM [activator, single point]",–
O=C(Nc1ccc(N2CCN(Cc3ccccc3Cl)CC2)cc1)c1cccnc1,"inconclusive: 32.6 µM [inhibitor, partial curve, poor fit]",–
CCOC(=O)CCC(=O)Nc1ccc(S(=O)(=O)N2CCCCC2)cc1,–,inactive: -8.22% [at 46.1 µM]
CC1CN(C(=O)COC(=O)c2ccc(F)cc2Cl)CC(C)O1 (stereo unspecified),–,inactive: 8.97% [at 46.1 µM]
Cc1ccc2[nH]cc(C(c3ccccc3)c3cccs3)c2c1 (stereo unspecified),"inconclusive: 35.5 µM [inhibitor, single point]",–
COC(=O)C1=C(C)N=C2SC(C)C(=O)N2C1c1ccc(C(=O)OC)cc1 (stereo unspecified),"inconclusive: 17.8 µM [inhibitor, partial curve, poor fit]",–
N#Cc1nc(-c2ccccc2F)oc1NCCc1ccccc1,–,inactive: -20%
c1ccc(-c2csc(Nc3ncccn3)n2)cc1,"inconclusive: 0.112 µM [inhibitor, full curve, poor fit]",–
O=C(NC(NC1CCS(=O)(=O)C1)C(=O)c1ccccc1)c1ccc(Cl)cc1 (stereo unspecified),–,inactive: -0.427%
Cc1nn(CC(=O)Nc2ccc(C(=O)N3CCCC3)cc2)c(=O)c2ccccc12,–,inactive: 11.2%
CC(CC(C#N)(c1ccccc1)c1ccccc1)N1CCCCC1 (stereo unspecified),"inconclusive: 10 µM [inhibitor, partial curve, poor fit]",–
Cc1ccc(NC(=O)C2CCCN(S(=O)(=O)c3cccc4cccnc34)C2)cc1Cl (stereo unspecified),"inconclusive: 7.94 µM [inhibitor, partial curve, poor fit]",–
Clc1cc(I)cc(Cl)c1NC1=NCCN1,"inconclusive: 16.4 µM [inhibitor, partial curve, poor fit] and inconclusive: 17.8 nM [inhibitor, full curve]",–
Cc1cnc(C(=O)Nc2nnc(SCc3c(Cl)cccc3Cl)s2)cn1,"inconclusive: 35.5 µM [inhibitor, single point]",–
COc1cc(CN2CC(=O)N(c3ccc(C)c(Cl)c3)C2=S)cc(OC)c1OC,–,inactive: -17.1% [at 46.1 µM]
CC/C(=C\C1CCCCC1)C(NP(=O)(c1ccccc1)c1ccccc1)c1ccccc1 (stereo unspecified),–,inactive: -38.4%
COC(=O)CSc1nnc(CNC(=O)c2ccccc2F)n1-c1ccccc1,–,inactive: -0.817% [at 46.1 µM]
